No constants are given. Whether binding was seen depends on the method and setting. In cells and extracts the contact can be indirect. These calls come from enrichment with a bait or labelling near it, and not all partners need be listed. For part of these data: A no says only that the protein was not detected with the bait. Tags and fused reporters may be left off the sequences shown.

Consider four molecules from PMC9542535.

The target of experiment [1] is T1, VnfA3 with a C-terminal triple-FLAG tag (strain CAA025) (Azotobacter vinelandii) (UniProt C1DIZ6).
T1 sequence: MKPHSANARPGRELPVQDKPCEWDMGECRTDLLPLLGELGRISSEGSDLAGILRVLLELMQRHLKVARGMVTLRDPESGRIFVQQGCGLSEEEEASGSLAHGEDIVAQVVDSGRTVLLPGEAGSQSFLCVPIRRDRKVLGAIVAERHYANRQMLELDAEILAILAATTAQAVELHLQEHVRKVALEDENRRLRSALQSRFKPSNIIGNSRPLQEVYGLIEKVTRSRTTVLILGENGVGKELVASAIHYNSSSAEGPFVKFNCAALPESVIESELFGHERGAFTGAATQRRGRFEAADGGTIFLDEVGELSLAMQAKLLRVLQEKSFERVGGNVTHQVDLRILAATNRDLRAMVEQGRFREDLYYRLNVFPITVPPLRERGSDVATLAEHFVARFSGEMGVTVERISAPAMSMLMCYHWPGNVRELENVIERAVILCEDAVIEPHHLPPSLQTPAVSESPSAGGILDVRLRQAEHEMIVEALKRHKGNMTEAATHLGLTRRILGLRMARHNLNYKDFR
The experiment can be described thus: affinity purification with mass spectrometry; A. vinelandii cultures grown in the presence of V (1 μM) or in its absence (Fe-only conditions), cross-linked in vivo with 1% formaldehyde; 3xFLAG-tagged bait recovered from lysate with anti-FLAG magnetic beads; eluted proteins identified by LC-MS/MS; non-tagged wild-type strain DJ as control.

Experiment [2] has as its target T1, VnfA3 with a C-terminal triple-FLAG tag (strain CAA025) (Azotobacter vinelandii). The experiment can be described thus: affinity purification with mass spectrometry; as a2, only cultures grown in the presence of V (1 μM); in vivo formaldehyde cross-linking, anti-FLAG magnetic beads, LC-MS/MS.
For experiment [3], the target named is T2, VnfA1 with a C-terminal triple-FLAG tag (strain CAA005) (Azotobacter vinelandii) (UniProt P12627).
T2 sequence: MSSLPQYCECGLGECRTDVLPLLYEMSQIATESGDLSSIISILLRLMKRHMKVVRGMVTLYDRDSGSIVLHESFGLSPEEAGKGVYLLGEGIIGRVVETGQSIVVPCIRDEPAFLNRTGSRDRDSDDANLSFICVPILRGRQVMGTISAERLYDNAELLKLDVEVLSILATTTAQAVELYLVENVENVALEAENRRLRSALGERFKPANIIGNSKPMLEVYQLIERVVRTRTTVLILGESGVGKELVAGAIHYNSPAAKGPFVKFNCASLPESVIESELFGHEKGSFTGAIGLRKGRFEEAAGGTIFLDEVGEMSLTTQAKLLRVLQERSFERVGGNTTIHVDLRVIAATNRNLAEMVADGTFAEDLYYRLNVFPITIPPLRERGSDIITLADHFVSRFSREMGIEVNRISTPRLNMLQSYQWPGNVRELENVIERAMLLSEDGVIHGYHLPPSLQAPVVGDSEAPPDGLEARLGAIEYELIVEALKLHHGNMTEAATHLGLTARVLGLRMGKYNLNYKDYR
Briefly: affinity purification with mass spectrometry; A. vinelandii cultures grown in the presence of V (1 μM) or in its absence (Fe-only conditions), cross-linked in vivo with 1% formaldehyde; 3xFLAG-tagged bait recovered from lysate with anti-FLAG magnetic beads; eluted proteins identified by LC-MS/MS; non-tagged wild-type strain DJ as control.

With “VnfZ (Avin_47110), endogenous in A. vinelandii”, the binding entry in experiment [1] is reported as “binds”; in experiment [2], “no binding (only cells grown in the presence of V)”.

B1: VnfA1, endogenous in A. vinelandii (protein, UniProt P12627 1-522)
chain: MSSLPQYCECGLGECRTDVLPLLYEMSQIATESGDLSSIISILLRLMKRHMKVVRGMVTLYDRDSGSIVLHESFGLSPEEAGKGVYLLGEGIIGRVVETGQSIVVPCIRDEPAFLNRTGSRDRDSDDANLSFICVPILRGRQVMGTISAERLYDNAELLKLDVEVLSILATTTAQAVELYLVENVENVALEAENRRLRSALGERFKPANIIGNSKPMLEVYQLIERVVRTRTTVLILGESGVGKELVAGAIHYNSPAAKGPFVKFNCASLPESVIESELFGHEKGSFTGAIGLRKGRFEEAAGGTIFLDEVGEMSLTTQAKLLRVLQERSFERVGGNTTIHVDLRVIAATNRNLAEMVADGTFAEDLYYRLNVFPITIPPLRERGSDIITLADHFVSRFSREMGIEVNRISTPRLNMLQSYQWPGNVRELENVIERAMLLSEDGVIHGYHLPPSLQAPVVGDSEAPPDGLEARLGAIEYELIVEALKLHHGNMTEAATHLGLTARVLGLRMGKYNLNYKDYR
Turning to B1, in experiment [1], the binding result was “binds”.

B2: VnfA3, endogenous in A. vinelandii (protein, UniProt C1DIZ6 1-517)
chain: MKPHSANARPGRELPVQDKPCEWDMGECRTDLLPLLGELGRISSEGSDLAGILRVLLELMQRHLKVARGMVTLRDPESGRIFVQQGCGLSEEEEASGSLAHGEDIVAQVVDSGRTVLLPGEAGSQSFLCVPIRRDRKVLGAIVAERHYANRQMLELDAEILAILAATTAQAVELHLQEHVRKVALEDENRRLRSALQSRFKPSNIIGNSRPLQEVYGLIEKVTRSRTTVLILGENGVGKELVASAIHYNSSSAEGPFVKFNCAALPESVIESELFGHERGAFTGAATQRRGRFEAADGGTIFLDEVGELSLAMQAKLLRVLQEKSFERVGGNVTHQVDLRILAATNRDLRAMVEQGRFREDLYYRLNVFPITVPPLRERGSDVATLAEHFVARFSGEMGVTVERISAPAMSMLMCYHWPGNVRELENVIERAVILCEDAVIEPHHLPPSLQTPAVSESPSAGGILDVRLRQAEHEMIVEALKRHKGNMTEAATHLGLTRRILGLRMARHNLNYKDFR
B2: the binding entry in experiment [3] is recorded as “binds”.

B3: VnfA2, endogenous in A. vinelandii (protein, UniProt C1DPS6 1-493)
chain: MGECHTDLLPLLGELGRIPSEGSDLAGILRVLLELMQRHLKMARGMVTLRDPESGRIFVQQGCGLSEEEEASGYLALGEDIVAQAVDSGRTVVLPGEAGNQSLLCVPIRRDRKVLGTIVAERHYANRRMLELDAEILAILAALTAQAVELHLQEHVRKVALEDENHRLHSALQSRFKPSSIIGSSRPLQEVHRLIEKVARSRATVLILGESGVGKELVASAIHYNGSNAEGPFVKFNCAALPESVIESELFGHEYGAFTGAATPRRGRFEAADGGTIFLDEVGELSPAMQAKLLRVLQEKSFERVGGNVTHQVDLRILAATSRDLRAMVEQSRFRGDLYYRLNVFPISVPPLRERDSDIAILAEHFVARLSSRMGIPAKRISTPAMGMLMCYHWPGNVRELENVIERAVLLCEGAVIEPHHLPPSLQTPAVSESPSAGGILDVRLGQAECELIAEALKRHKGNMTESAAHLGLTRRVLGLRMARHNLNHKEFR
In the case of B3, the binding entry is given as “no binding” in experiment [1] and “binds” in experiment [3].
